Results published in patent US20240366722A1 (ACCELERON PHARMA, published 2024).
Positions count from the first letter of the chain named. Numbers in names are those of the source. Results are given in words; binding and its absence hold for the method and conditions named. Some entries that bind do so weakly or less than the wild type. For part of these data: Tags and fused reporters may be left off the sequences shown. Blank lines part the entries; values can stand above or below the molecule they belong to.

Protein sequences, listed by entry. Tags and fused reporters are not part of them. Lines headed by an entry give the natural chain unless they say otherwise; changes in a name come on top. Residues count along the entry.
UniProt P22004, residues 382-513: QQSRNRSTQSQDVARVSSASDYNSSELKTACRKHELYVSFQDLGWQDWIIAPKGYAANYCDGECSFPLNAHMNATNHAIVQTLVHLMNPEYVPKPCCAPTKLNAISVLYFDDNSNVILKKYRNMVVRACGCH
UniProt P27037: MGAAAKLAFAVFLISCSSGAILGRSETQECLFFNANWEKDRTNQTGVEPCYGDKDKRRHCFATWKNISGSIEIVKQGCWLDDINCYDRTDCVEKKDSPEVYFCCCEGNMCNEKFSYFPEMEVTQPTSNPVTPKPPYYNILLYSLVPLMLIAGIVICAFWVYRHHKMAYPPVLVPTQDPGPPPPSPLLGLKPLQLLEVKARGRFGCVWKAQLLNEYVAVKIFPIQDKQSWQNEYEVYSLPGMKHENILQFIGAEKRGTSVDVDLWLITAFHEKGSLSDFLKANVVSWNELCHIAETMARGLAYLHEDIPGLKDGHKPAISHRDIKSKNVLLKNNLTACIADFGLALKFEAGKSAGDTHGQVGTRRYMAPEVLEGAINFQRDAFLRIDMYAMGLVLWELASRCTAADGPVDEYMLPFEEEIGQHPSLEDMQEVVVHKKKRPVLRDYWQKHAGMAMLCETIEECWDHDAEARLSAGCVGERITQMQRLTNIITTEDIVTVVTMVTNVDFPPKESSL

Experiments:
GDF11 [1] = molecular target: T1, GDF11 (UniProt O95390 299-407); test: Biacore, ligand amine-coupled to CM5 chip, Fc fusion flowed
T1 sequence (looked up): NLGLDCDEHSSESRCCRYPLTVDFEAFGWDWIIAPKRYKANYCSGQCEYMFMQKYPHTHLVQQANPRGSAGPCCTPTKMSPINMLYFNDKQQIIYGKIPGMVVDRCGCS

BMP10 = molecular target: T2, BMP10 (UniProt O95393); test: similar Biacore binding assay
T2 sequence (looked up): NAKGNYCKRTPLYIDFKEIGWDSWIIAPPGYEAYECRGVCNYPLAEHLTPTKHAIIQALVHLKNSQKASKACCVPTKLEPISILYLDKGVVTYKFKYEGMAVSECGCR

BMP6 = BMP6 (UniProt P22004); test: similar Biacore binding assay
GDF8 = molecular target: T3, GDF8 (UniProt O14793); test: similar Biacore binding assay
T3 sequence (looked up): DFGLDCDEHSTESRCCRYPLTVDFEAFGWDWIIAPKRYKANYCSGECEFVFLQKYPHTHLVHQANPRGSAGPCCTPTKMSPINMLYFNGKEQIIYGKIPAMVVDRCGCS

activin B = molecular target: T4, activin B (UniProt P09529 293-407); test: similar Biacore binding assay
T4 sequence (looked up): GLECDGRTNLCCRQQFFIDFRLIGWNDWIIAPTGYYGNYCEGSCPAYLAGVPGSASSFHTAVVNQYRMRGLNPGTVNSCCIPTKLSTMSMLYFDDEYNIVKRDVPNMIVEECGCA

GDF11 [2] = molecular target: T1, GDF11; test: Biacore, ligand coupled to chip, receptor-Fc flowed

binding (GDF11 [1]): binds | binding (BMP10): binds | binding (BMP6): binds | binding (GDF8): binds | binding (activin B): binds
Molecule: ActRIIA-mFc (from UniProt P27037 21-135) (Fc fusion)

binding (GDF11 [2]): binds
B1: Soluble ActRIIB-Fc variant K74A (Table 12) (Fc fusion, UniProt Q13705 19-119, looked up, not shown: a dimerising Fc or GST)
chain: SGRGEAETRECIYYNANWELERTNQSGLERCEGEQDKRLHCYASWANSSGTIELVAKGCWLDDFNCYDRQECVATEENPQVYFCCCEGNFCNERFTHLPEA

binding (GDF11 [2]): binds
B2: Soluble ActRIIB-Fc WT (64A) (Fc fusion, UniProt Q13705 19-119, looked up, not shown: a dimerising Fc or GST)
chain: B1 chain with A56K

binding (GDF11 [2]): binds
B3: Soluble ActRIIB-Fc variant R40A (Fc fusion, UniProt Q13705 19-119, looked up, not shown: a dimerising Fc or GST)
chain: B1 chain with R22A, A56K

binding (GDF11 [2]): binds
B4: Soluble ActRIIB-Fc variant F82A (Fc fusion, UniProt Q13705 19-119, looked up, not shown: a dimerising Fc or GST)
chain: B1 chain with A56K, F64A
